Measurements published in publication PMC6874087.
No constants are given. Whether binding was seen depends on the method and setting. In cells and extracts the contact can be indirect. Some binding calls cover weakened binding; strength is not graded here. Sequences can lack the tags named with a protein.

Chains of the proteins cited; added tags and fusions are not shown.
UniProt P12982: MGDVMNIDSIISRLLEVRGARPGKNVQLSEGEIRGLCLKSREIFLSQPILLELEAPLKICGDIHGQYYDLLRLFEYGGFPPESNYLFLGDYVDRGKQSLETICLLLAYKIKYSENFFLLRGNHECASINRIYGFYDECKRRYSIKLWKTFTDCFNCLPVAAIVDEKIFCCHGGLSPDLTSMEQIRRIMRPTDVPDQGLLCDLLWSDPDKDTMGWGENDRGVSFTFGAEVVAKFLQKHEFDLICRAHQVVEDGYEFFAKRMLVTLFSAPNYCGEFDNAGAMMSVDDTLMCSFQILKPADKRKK

T1: Suppressor of Ras (SUR-8), FLAG-tagged (Drosophila) (UniProt Q9VEK6)
T1 sequence: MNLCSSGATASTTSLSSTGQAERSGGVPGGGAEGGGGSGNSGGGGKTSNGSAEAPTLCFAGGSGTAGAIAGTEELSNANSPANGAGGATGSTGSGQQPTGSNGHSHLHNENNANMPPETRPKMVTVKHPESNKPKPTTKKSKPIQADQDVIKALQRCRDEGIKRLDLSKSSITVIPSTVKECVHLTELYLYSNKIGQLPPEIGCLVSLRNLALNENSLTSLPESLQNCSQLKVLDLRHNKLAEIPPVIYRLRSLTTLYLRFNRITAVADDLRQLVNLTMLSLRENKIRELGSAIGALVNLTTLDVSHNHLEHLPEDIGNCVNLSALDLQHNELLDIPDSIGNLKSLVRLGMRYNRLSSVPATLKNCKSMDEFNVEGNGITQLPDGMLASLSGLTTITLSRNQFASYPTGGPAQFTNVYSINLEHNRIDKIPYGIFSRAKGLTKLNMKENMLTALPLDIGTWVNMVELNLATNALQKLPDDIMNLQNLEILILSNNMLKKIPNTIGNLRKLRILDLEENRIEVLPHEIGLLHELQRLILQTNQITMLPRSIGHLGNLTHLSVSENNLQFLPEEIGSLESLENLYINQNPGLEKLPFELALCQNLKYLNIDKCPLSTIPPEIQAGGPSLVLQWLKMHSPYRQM


Experiments:
[1] = target: T1, Suppressor of Ras (SUR-8), FLAG-tagged (Drosophila); experiment: co-IP; anti-FLAG immunoprecipitation of SUR-8-FLAG from head extracts of flies overexpressing PER, SUR-8-Flag and PP1-87B-HA with tim-GAL4, heads collected at ZT19 (also compared with ZT1); western blot
[2] = target: PERIOD (PER) (Drosophila) (UniProt P07663); experiment: co-IP; anti-PER immunoprecipitation from head extracts of flies overexpressing PER, SUR-8-Flag and PP1-87B-HA with tim-GAL4, heads collected at ZT19; also done without SUR-8 overexpression and with Sur-8 knockdown; antibody overnight at 4°C, Protein G beads 2 hours, western blot

| Molecule | binding [1] | binding [2] |
| --- | --- | --- |
| PERIOD (PER) (from UniProt P07663 1-1218) | binds | – |
| protein phosphatase 1 catalytic subunit PP1-87B, HA-tagged (from UniProt P12982 1-302) (enzyme) | binds | binds |
| Suppressor of Ras (SUR-8), FLAG-tagged (protein, UniProt Q9VEK6 1-641) MNLCSSGATASTTSLSSTGQAERSGGVPGGGAEGGGGSGNSGGGGKTSNGSAEAPTLCFAGGSGTAGAIAGTEELSNANSPANGAGGATGSTGSGQQPTGSNGHSHLHNENNANMPPETRPKMVTVKHPESNKPKPTTKKSKPIQADQDVIKALQRCRDEGIKRLDLSKSSITVIPSTVKECVHLTELYLYSNKIGQLPPEIGCLVSLRNLALNENSLTSLPESLQNCSQLKVLDLRHNKLAEIPPVIYRLRSLTTLYLRFNRITAVADDLRQLVNLTMLSLRENKIRELGSAIGALVNLTTLDVSHNHLEHLPEDIGNCVNLSALDLQHNELLDIPDSIGNLKSLVRLGMRYNRLSSVPATLKNCKSMDEFNVEGNGITQLPDGMLASLSGLTTITLSRNQFASYPTGGPAQFTNVYSINLEHNRIDKIPYGIFSRAKGLTKLNMKENMLTALPLDIGTWVNMVELNLATNALQKLPDDIMNLQNLEILILSNNMLKKIPNTIGNLRKLRILDLEENRIEVLPHEIGLLHELQRLILQTNQITMLPRSIGHLGNLTHLSVSENNLQFLPEEIGSLESLENLYINQNPGLEKLPFELALCQNLKYLNIDKCPLSTIPPEIQAGGPSLVLQWLKMHSPYRQM | – | binds |
